# From patent US20240237661A1, “ANTIMICROBIAL SOLUTIONS AND USES THEREOF” (EcoPlanet Environmental LLC, priority 2023, published 2024)
# For at least one compound, name, drawing or mass did not settle the structure.
# Tested on: nalidixic acid-resistant Salmonella Enterica serovar Typhimurium
# Test: Wing wash model: Salmonella counts in rinsate of experimentally contaminated broiler wings
# Type: cell-based
# Details: compared to untreated control (T1); 15 mins incubation
# Description: As a non-limiting example, the efficacy of Sx on the reduction of nalidixic acid-resistant Salmonella spp. on experimentally contaminated broiler carcasses (using a wing wash model) was tested. Sx was tested at 100 ppm and 200 ppm, with or without lecithin and was compared with an untreated negative control group and peracetic Acid (PAA) at 200 ppm as a commercial comparator. […] Almost 0.6 to 3.0 log reduction has been observed in previous iterations. During those studies, the effectiveness of Sx was studied at different time intervals and fixed time interval. […] Whereas, based on literature and food safety inspection services (USDA) directive 7120.1, PAA has been recommended with the dose range of 50 ppm to 2000 ppm. Under field conditions, most of the establishments use 200 ppm as a whole carcass rinse. Therefore, in this iteration, Sx was compared with PAA at 200 ppm level. In this study, Sx was tested at 1.25% and 2.5% level which are equivalent to 100 ppm and 200 ppm of propionic acid concentration. Lecithin was added to the Sx solution at the rate of 0.02%. Lecithin is believed to enhance the cell wall penetration of propionic acid and isoamyl hexanoate leading to better antimicrobial activity.
# For this study, a WHIRL-PAK® bag containing one pair of chicken wings was the experimental unit. […]
structure (smiles),measurement,value
"CC(=O)OO [PAA 200 ppm, peracetic Acid]",MPN reduction,",560,417"
